# PubChem BioAssay AID1259424 – University of Nebraska Medical Center, 2018
# Aim: 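Seek colon cancer survival genes behaving like KSR1, using a six-gene signature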 (primary screen)
# System: human HCT116 colon cancer cells
# Reagents: siRNA pool against human genes, 50 nM
# Read-out: 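Six signature mRNAs by branched-DNA multiplex assay, scaled to two housekeeping genes and non-targeting median, log2; matched to mean KSR1 knockdown profile by Pearson correlation and euclidean distance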
# Scale: mean correlation with KSR1 profile and KSR1 correlation: higher = expression change more like KSR1 knockdown; mean distance from KSR1 profile: higher = expression change less like KSR1 knockdown
# This is one part, drawn at random, of about 14,000 reagents tested. 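Higher correlation or smaller distance means closer resemblance to KSR1 loss; control wells, including KSR1 knockdowns, recur on many plates.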 Not given: the time to read-out.
target gene,mean correlation with KSR1 profile,mean distance from KSR1 profile,"KSR1 correlation, replicate 1","KSR1 correlation, replicate 2","KSR1 correlation, replicate 3"
PDLIM2 (GeneID 64236),-0.306,1.7,0.0803,-0.494,-0.584
DACT1 (GeneID 51339),0.118,2.75,0.133,-0.107,0.0494
IDI2-AS1 (GeneID 55853),-0.332,3.31,-0.64,-0.604,0.0606
BACH2 (GeneID 60468),0.232,2.92,0.386,0.206,-0.523
SEC22C (GeneID 9117),0.0133,1.89,0.136,-0.0211,0.11
PMPCB (GeneID 9512),-0.439,1.58,-0.177,-0.0894,-0.559
NPFFR1 (GeneID 64106),0.26,2.73,0.223,0.404,0.332
MUC3B (GeneID 57876),-0.464,2.26,-0.621,-0.215,-0.425
EVI2B (GeneID 2124),0.0281,1.57,-0.00201,-0.323,0.00243
SLF1 (GeneID 84250),-0.0079,2.18,-0.0615,0.0374,-0.0904
HLF (GeneID 3131),-0.589,2.97,-0.345,-0.503,-0.87
CSNK1D (GeneID 1453),0.485,1.95,0.43,0.216,0.486
LAP3 (GeneID 51056),0.154,2.28,0.224,0.0273,0.0204
BFSP1 (GeneID 631),0.321,2.2,0.364,0.354,0.186
STEAP4 (GeneID 79689),-0.0472,2.04,-0.272,0.18,0.0136
FKBP5 (GeneID 2289),0.645,0.924,0.613,0.722,0.346
CLUH (GeneID 23277),-0.162,2.18,-0.234,-0.217,-0.0282
AMPD3 (GeneID 272),0.266,1.65,0.18,0.397,0.637
UEVLD (GeneID 55293),0.0973,3.74,0.00678,-0.268,0.477
TAC3 (GeneID 6866),0.208,1.33,0.127,0.391,0.143
AKR7L (GeneID 246181),-0.254,3.49,-0.174,-0.0112,-0.417
MRPL39 (GeneID 54148),-0.376,2.65,-0.598,-0.314,-0.353
KCNG3 (GeneID 170850),-0.325,2.13,-0.371,-0.302,-0.42
SHARPIN (GeneID 81858),0.32,2.41,-0.178,0.152,0.422
ADAM29 (GeneID 11086),-0.224,3.01,-0.254,-0.17,-0.314
CDCA4 (GeneID 55038),-0.225,1.53,-0.25,-0.512,-0.231
H1-0 (GeneID 3005),0.588,1.77,0.55,0.358,0.763
MAP3K7 (GeneID 6885),0.315,1.44,0.743,0.094,0.314
SLC9A2 (GeneID 6549),-0.452,1.77,-0.377,-0.45,-0.326
KCNJ9 (GeneID 3765),0.0055,2.17,0.114,-0.175,0.0811
OSGEPL1 (GeneID 64172),-0.612,4.53,-0.611,-0.585,-0.578
AMMECR1L (GeneID 83607),0.784,1.02,0.671,0.744,0.837
PEX5L (GeneID 51555),-0.361,3.29,-0.404,-0.366,-0.18
AADAT (GeneID 51166),-0.467,2.06,-0.217,-0.411,-0.435

Already shown: an excerpt of the list.
target gene,mean correlation with KSR1 profile,mean distance from KSR1 profile,"KSR1 correlation, replicate 1","KSR1 correlation, replicate 2","KSR1 correlation, replicate 3"
AMMECR1L (GeneID 83607),0.784,1.02,0.671,0.744,0.837
PEX5L (GeneID 51555),-0.361,3.29,-0.404,-0.366,-0.18
